Test results from PubChem BioAssay AID330 (DTP/NCI, 2004).
The list is a part of this screen's results and no random one: it gathers tests that were run many times, whatever their T/C, doses with no T/C, and many T/C values between a quarter and a half above the control. Further doses and runs are listed elsewhere. T/C: endpoint of the treated group in % of that of the vehicle group. Some entries give survivors of the animals treated and no T/C: the source holds a T/C of zero for them, seemingly a mark for toxic or unscored doses. Some survivor counts are full or nearly so, which does not show that the dose was tolerated: survival well below the control is almost never listed, so the zero probably covers shortened survival too. Survivors were counted at the toxicity check, usually on the fifth day, unless a day is given; later deaths do not show. Schedules are NCI's codes, taken here to give the interval after Q, in days (D) or hours (H), and the number of doses after X. Where survival is the endpoint, this PubChem deposit counts one and a half times the control or more as active, and values a quarter to a half above the control carry no call in these data; other NCI protocols may use other cut-offs. Some T/C values carry the count of animals alive at the toxicity check (mostly the fifth day); without a count, all were alive then. Some entries hold several experiments; the results are listed from low to high. Marks such as (2×) say how often a value occurs here. Some schedules carry Z or #; the key to these is not given.

Test system: P388 leukemia ip, CD2F1 mice, survival T/C
Assay: NCI In Vivo Anticancer Drug Screen. Data for tumor model P388 Leukemia (intraperitoneal) in CD2F1 (CDF1) mice
Conditions: T/C endpoint: median survival time, higher T/C = longer survival
[1] = dose: 0.1 mg/kg/injection, schedule: Q01DX009 (ip), vehicle: distilled water + Tween-80

With `COC1=C(N)C(=O)c2nc(-c3nc(C(=O)O)c(C)c(-c4ccc(OC)c(OC)c4O)c3N)ccc2C1=O` the T/C (dose: 0.02 mg/kg/injection, schedule: Q01DX009 (ip), vehicle: other, evaluated on day 5) was 101 and 147 % of control, the T/C (dose: 0.02 mg/kg/injection, schedule: Q01DX009 (ip), vehicle: other, evaluated on day 23) was 148 % of control and the T/C (dose: 0.02 mg/kg/injection, schedule: Q01DX009 (ip), vehicle: other, evaluated on day 25) was 101 % of control. The T/C (dose: 0.02 mg/kg/injection, schedule: Q01DX009 (ip), vehicle: other, evaluated on day 30) was 101 % of control [7 of 8 alive], the T/C (dose: 0.02 mg/kg/injection, schedule: Q01DX009 (ip), vehicle: other, evaluated on day 35) was 120 % of control and the T/C (dose: 0.02 mg/kg/injection, schedule: Q## X008 (ip), vehicle: other) was 130 % of control [8 of 10 alive]. For the same compound, the T/C (dose: 0.03 mg/kg/injection, schedule: Q01DX009 (ip), vehicle: water) was 131 % of control, the T/C (dose: 0.04 mg/kg/injection, schedule: Q01DX009 (ip), vehicle: other, evaluated on day 5) was 110 and 130 % of control and the T/C (dose: 0.04 mg/kg/injection, schedule: Q01DX009 (ip), vehicle: other, evaluated on day 23) was 130 % of control. For the same compound, the T/C (dose: 0.04 mg/kg/injection, schedule: Q01DX009 (ip), vehicle: other, evaluated on day 25) was 110 % of control, the T/C (dose: 0.04 mg/kg/injection, schedule: Q01DX009 (ip), vehicle: other, evaluated on day 28) was 113 % of control and the T/C (dose: 0.04 mg/kg/injection, schedule: Q01DX009 (ip), vehicle: other, evaluated on day 30) was 123 % of control. The T/C (dose: 0.05 mg/kg/injection, schedule: Q01DX009 (ip), vehicle: distilled water + Tween-80) was 120, 121, 133 (2×), 137, 148 % of control, the T/C (dose: 0.05 mg/kg/injection, schedule: Q01DX009 (ip), vehicle: other, evaluated on day 5) was 116 and 133 % of control and the T/C (dose: 0.05 mg/kg/injection, schedule: Q01DX009 (ip), vehicle: other, evaluated on day 22) was 116 % of control. For the same compound, the T/C (dose: 0.05 mg/kg/injection, schedule: Q01DX009 (ip), vehicle: other, evaluated on day 25) was 133 % of control, the T/C (dose: 0.05 mg/kg/injection, schedule: Q01DX009 (ip), vehicle: other, evaluated on day 28) was 130 % of control and the T/C (dose: 0.05 mg/kg/injection, schedule: Q01DX009 (ip), vehicle: other, evaluated on day 30) was 115, 119 (2×), 121, 122, 123, 137, 149 % of control. The T/C (dose: 0.05 mg/kg/injection, schedule: Q01DX009 (ip), vehicle: other, evaluated on day 35) was 120 % of control, the T/C (dose: 0.05 mg/kg/injection, schedule: Q01DX009 (ip), vehicle: other, evaluated on day 45) was 148 % of control and the T/C (dose: 0.05 mg/kg/injection, schedule: Q01DX009 (ip), vehicle: water) was 104, 117, 120, 122 (2×), 132 [5 of 6 alive], 135, 137, 142 % of control. For the same compound, the T/C (dose: 0.06 mg/kg/injection, schedule: Q01DX009 (ip), vehicle: dioxane) was 126 % of control, the T/C (dose: 0.06 mg/kg/injection, schedule: Q01DX009 (ip), vehicle: other, evaluated on day 5) was 135 % of control and the T/C (dose: 0.06 mg/kg/injection, schedule: Q01DX009 (ip), vehicle: other, evaluated on day 25) was 135 % of control. The T/C (dose: 0.06 mg/kg/injection, schedule: Q01DX009 (ip), vehicle: other, evaluated on day 28) was 126 % of control, the T/C (dose: 0.06 mg/kg/injection, schedule: Q01DX009 (ip), vehicle: other, evaluated on day 30) was 124 % of control and the T/C (dose: 0.08 mg/kg/injection, schedule: Q01DX009 (ip), vehicle: distilled water + Tween-80) was 130 and 133 % of control. The T/C (dose: 0.08 mg/kg/injection, schedule: Q01DX009 (ip), vehicle: other, evaluated on day 5) was 140 % of control, the T/C (dose: 0.08 mg/kg/injection, schedule: Q01DX009 (ip), vehicle: other, evaluated on day 23) was 140 % of control and the T/C (dose: 0.08 mg/kg/injection, schedule: Q01DX009 (ip), vehicle: other, evaluated on day 28) was 117 % of control. For the same compound, the T/C (dose: 0.08 mg/kg/injection, schedule: Q01DX009 (ip), vehicle: other, evaluated on day 30) was 110 % of control, the T/C (dose: 0.08 mg/kg/injection, schedule: Q01DX009 (ip), vehicle: saline with Tween-80) was 140 % of control and the T/C (dose: 0.09 mg/kg/injection, schedule: Q01DX009 (ip), vehicle: dioxane) was 129 % of control. The T/C [1] was 100, 113, 127, 128, 134 % of control, the survivor count [1] was 6 of 6 and the T/C (dose: 0.1 mg/kg/injection, schedule: Q01DX009 (ip), vehicle: other, evaluated on day 5) was 112 % of control. For the same compound, the T/C (dose: 0.1 mg/kg/injection, schedule: Q01DX009 (ip), vehicle: other, evaluated on day 22) was 112 % of control [7 of 8 alive] and the T/C (dose: 0.1 mg/kg/injection, schedule: Q01DX009 (ip), vehicle: other, evaluated on day 28) was 106 % of control.
